Data from the supplement of paper PMC10849652.
The other results are listed elsewhere or left out.

Sequences of proteins named here, by UniProt entry; tags and fusion partners are left off. A change or cut given only in a name is not applied to a line headed by its entry.
UniProt O95376: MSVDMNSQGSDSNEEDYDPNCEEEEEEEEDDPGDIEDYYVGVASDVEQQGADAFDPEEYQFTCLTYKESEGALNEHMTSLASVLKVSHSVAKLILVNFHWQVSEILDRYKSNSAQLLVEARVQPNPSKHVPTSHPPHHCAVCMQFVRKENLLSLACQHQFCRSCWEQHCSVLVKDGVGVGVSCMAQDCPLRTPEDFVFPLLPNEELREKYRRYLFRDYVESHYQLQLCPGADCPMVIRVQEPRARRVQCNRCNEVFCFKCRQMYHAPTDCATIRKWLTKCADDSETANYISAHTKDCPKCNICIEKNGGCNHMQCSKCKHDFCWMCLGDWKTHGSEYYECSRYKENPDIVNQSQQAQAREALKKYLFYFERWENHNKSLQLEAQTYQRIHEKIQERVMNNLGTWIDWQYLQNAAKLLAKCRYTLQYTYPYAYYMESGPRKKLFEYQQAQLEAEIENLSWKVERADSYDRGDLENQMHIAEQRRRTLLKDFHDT
UniProt Q9NVT9: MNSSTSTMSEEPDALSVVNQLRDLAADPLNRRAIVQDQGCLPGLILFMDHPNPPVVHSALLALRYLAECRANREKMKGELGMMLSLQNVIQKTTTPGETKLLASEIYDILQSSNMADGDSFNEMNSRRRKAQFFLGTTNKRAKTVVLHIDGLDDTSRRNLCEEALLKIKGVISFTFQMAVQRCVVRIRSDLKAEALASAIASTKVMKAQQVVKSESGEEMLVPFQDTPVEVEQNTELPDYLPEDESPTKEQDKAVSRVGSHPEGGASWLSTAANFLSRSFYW
UniProt O95352: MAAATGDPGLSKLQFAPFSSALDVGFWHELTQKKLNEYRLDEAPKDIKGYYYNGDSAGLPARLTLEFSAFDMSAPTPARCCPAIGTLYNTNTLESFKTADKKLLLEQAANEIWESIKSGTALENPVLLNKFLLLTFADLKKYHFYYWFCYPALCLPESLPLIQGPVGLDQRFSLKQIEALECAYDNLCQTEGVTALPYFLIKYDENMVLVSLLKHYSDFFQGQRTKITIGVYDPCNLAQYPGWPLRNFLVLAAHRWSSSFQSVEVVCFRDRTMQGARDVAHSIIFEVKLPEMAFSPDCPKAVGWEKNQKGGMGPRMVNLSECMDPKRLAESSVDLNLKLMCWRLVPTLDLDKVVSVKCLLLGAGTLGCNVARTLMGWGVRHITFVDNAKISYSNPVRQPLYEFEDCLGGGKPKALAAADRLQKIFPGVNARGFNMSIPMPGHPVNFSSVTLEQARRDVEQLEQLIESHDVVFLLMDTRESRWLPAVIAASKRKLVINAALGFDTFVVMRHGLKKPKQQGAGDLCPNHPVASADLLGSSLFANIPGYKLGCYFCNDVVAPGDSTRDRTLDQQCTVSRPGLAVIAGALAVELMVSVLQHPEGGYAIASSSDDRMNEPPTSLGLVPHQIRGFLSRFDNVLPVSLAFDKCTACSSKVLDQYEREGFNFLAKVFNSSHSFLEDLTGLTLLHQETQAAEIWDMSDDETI
UniProt O43681: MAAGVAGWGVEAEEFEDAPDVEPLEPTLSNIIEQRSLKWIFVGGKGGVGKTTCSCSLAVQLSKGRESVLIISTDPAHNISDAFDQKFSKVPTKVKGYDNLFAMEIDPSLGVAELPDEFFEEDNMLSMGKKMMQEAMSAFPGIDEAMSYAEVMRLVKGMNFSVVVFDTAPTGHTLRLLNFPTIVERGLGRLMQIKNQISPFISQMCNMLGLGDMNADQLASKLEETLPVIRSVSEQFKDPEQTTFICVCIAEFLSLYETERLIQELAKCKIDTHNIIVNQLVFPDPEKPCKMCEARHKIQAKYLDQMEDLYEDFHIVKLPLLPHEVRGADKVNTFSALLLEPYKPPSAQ
UniProt P35670: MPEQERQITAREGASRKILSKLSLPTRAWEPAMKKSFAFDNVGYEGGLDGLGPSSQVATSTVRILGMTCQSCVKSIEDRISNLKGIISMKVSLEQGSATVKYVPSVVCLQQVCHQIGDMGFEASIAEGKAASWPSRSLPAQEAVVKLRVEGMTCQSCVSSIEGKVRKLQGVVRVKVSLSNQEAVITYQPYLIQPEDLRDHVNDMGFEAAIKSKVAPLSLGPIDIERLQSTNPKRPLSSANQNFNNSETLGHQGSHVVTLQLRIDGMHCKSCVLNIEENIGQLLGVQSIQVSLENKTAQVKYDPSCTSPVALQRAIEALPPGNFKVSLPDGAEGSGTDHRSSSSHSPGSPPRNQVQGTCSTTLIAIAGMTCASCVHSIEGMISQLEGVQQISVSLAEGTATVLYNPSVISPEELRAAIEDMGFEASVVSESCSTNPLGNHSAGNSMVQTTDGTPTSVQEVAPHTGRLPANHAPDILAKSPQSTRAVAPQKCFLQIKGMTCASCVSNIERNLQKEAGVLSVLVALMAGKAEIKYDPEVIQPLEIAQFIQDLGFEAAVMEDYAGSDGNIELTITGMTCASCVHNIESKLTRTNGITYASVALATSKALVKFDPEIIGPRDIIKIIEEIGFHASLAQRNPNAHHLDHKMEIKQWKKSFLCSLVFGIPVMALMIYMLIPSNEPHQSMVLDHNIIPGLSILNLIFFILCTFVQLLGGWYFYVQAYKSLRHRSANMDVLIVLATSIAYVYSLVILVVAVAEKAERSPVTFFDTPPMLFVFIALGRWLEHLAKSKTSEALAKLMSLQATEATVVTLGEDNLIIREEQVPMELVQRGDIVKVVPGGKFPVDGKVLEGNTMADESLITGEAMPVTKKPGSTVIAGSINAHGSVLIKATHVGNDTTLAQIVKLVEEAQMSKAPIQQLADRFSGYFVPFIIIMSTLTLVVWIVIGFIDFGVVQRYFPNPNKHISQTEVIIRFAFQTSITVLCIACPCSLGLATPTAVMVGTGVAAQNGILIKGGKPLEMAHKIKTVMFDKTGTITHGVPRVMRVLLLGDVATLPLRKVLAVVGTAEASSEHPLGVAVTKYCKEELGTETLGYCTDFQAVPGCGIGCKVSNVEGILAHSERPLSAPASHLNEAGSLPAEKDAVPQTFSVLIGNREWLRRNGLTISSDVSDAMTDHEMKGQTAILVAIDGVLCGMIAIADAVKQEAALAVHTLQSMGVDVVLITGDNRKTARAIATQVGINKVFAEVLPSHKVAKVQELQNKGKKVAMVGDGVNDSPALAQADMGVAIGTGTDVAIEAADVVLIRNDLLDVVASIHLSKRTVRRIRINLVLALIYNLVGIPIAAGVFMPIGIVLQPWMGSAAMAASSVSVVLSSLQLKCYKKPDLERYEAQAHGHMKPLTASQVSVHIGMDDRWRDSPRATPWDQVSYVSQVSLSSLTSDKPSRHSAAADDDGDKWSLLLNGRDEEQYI
UniProt P36405: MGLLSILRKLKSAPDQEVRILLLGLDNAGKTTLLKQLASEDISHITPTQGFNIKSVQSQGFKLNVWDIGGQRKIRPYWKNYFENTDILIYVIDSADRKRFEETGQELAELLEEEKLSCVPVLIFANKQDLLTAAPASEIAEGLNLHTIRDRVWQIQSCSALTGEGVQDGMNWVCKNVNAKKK
UniProt P56385: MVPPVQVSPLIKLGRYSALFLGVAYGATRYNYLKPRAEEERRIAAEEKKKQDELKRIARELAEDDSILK
UniProt O75787, whole entry, looked up: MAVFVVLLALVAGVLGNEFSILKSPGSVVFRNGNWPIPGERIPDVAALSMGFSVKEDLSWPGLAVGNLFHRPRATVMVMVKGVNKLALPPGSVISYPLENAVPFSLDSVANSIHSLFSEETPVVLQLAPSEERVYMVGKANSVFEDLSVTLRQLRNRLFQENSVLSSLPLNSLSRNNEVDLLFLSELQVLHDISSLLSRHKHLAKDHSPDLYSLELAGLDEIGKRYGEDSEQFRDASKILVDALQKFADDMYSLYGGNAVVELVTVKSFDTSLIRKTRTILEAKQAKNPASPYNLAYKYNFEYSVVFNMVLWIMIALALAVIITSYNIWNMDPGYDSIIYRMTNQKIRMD
UniProt P30049: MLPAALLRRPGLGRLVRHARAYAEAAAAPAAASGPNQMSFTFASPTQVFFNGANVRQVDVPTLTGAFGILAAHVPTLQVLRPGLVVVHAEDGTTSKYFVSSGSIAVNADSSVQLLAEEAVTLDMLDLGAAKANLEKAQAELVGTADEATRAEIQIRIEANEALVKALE
UniProt O75947: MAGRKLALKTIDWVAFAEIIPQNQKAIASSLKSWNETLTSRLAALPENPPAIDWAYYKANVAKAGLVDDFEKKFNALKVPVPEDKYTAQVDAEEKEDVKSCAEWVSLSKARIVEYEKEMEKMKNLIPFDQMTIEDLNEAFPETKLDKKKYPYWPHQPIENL
UniProt Q8N9N2: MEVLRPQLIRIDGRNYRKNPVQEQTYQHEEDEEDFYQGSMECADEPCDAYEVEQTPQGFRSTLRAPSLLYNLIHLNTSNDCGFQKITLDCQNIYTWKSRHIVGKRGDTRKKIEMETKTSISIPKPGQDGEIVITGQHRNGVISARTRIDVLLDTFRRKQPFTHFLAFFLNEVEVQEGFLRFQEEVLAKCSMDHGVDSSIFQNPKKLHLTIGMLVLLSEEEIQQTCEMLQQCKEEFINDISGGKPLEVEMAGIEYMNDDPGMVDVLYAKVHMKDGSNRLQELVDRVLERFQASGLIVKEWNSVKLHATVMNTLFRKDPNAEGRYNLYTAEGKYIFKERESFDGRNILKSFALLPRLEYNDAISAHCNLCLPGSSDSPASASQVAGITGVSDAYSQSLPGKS
UniProt Q8N6S5: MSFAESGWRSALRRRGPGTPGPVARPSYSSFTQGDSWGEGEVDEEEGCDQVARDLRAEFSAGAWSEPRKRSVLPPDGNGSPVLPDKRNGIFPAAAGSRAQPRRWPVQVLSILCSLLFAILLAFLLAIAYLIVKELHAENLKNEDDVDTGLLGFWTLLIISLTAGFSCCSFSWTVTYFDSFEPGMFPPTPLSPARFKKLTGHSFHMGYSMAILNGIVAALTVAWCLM
UniProt P56378: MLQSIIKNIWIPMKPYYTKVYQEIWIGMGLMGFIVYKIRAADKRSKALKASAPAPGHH
UniProt O75348, whole entry, looked up: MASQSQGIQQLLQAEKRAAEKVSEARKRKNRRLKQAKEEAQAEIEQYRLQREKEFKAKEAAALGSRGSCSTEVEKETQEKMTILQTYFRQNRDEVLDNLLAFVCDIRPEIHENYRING
UniProt P20020: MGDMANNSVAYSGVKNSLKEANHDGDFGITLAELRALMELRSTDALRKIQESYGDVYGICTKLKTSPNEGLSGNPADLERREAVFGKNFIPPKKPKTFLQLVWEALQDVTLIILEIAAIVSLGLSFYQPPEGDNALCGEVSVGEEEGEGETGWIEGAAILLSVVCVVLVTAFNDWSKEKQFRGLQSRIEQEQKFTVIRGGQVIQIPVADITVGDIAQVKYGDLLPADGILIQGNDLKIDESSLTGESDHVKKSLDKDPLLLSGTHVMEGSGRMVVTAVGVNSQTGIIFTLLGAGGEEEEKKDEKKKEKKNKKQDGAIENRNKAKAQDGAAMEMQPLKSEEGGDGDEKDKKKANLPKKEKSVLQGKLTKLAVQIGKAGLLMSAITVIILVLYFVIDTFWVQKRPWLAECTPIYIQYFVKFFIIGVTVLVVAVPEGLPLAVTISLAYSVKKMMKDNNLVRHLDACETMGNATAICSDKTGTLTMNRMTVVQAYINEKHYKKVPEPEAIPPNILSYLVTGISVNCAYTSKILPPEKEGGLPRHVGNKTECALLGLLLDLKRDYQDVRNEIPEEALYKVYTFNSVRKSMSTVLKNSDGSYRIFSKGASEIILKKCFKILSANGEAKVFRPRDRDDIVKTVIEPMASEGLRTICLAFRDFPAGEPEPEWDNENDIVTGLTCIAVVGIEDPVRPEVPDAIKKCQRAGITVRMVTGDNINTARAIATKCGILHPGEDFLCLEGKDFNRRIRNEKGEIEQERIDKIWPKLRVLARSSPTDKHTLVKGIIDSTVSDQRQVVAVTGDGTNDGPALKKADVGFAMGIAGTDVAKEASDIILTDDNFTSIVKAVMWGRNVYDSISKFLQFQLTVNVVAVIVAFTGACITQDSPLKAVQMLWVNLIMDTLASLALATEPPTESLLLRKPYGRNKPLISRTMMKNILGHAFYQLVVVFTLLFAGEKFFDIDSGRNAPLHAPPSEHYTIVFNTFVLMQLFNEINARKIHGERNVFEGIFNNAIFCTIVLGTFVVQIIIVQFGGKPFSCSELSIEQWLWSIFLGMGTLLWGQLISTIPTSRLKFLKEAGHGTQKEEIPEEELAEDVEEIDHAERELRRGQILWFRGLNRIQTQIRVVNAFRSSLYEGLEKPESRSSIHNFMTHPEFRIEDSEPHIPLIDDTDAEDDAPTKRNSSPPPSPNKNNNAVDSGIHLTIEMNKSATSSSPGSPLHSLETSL
UniProt Q9Y294, whole entry, looked up: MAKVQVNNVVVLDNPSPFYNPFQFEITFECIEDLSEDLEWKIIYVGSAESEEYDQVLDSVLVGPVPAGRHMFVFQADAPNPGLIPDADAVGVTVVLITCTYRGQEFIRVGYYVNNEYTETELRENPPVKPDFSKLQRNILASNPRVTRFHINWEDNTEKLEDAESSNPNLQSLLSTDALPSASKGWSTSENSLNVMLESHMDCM

Tests used:
Assay in all cases: log2 fold change, soluble protein after heating vs DMSO (PISA); higher = thermal stabilisation; K562 cells, 10 uM, 30 min; active = over 0.2 and 3.5 SD of the protein, either way, in both replicates (recomputed)
[1] = compound: Cc1ccc(NC(=O)c2ccc(CN3CC[C@H](N(C)C)C3)c(C(F)(F)F)c2)cc1Nc1nccc(-c2cncnc2)n1 [bafetinib]
How it was run: (§1)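 For each measurement, 10 μM compound was applied for 30 min to K562 cells at 2×10^6 cells/mL. Aliquots were heated for 3 min across 48°C-58°C, pooled, and extracted in PBS with 0.5% NP-40 at 4°C; the supernatant after 21,000xg for 90 min was soluble protein. This was quantified by TMTpro 16plex LC-MS/MS with channel sums equalised, and thermal stability was reported relative to control samples from duplicates, on a log2 fold-change scale.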

[2] = compound: Cc1cccc(CC(=O)N2CCc3c2ccc(-c2cn(C)c4ncnc(N)c24)c3F)n1
How it was run: as §1

[3] = compound: Cc1cn(-c2cc(NC(=O)c3ccc(C)c(Nc4nccc(-c5cccnc5)n4)c3)cc(C(F)(F)F)c2)cn1 [nilotinib]
How it was run: as §1

[4] = compound: Cc1nc(Nc2n[nH]c3c2CN(C(=O)N[C@H](CN(C)C)c2ccccc2)C3(C)C)c2sccc2n1
How it was run: as §1

[5] = compound: Cc1nc(Nc2ncc(C(=O)Nc3c(C)cccc3Cl)s2)cc(N2CCN(CCO)CC2)n1 [dasatinib]
How it was run: as §1

[6] = compound: Cc1ncc(-c2ccnc(Nc3ccc(S(C)(=O)=O)cc3)n2)n1C(C)C
How it was run: as §1

[7] = compound: Cn1cc(-c2ccc3c(c2)CCN3C(=O)Cc2cccc(C(F)(F)F)c2)c2c(N)ncnc21
How it was run: as §1

[8] = compound: Cn1cc(-c2ccc3nnc(C(F)(F)c4ccc5ncccc5c4)n3n2)cn1
How it was run: as §1

[9] = compound: Cn1cncc1[C@@](N)(c1ccc(Cl)cc1)c1ccc2c(c1)c(-c1cccc(Cl)c1)cc(=O)n2C [tipifarnib]
How it was run: as §1

[10] = compound: FC(F)(F)c1ccc(/C=C/c2nc(COc3ccc(CCCCn4ccnn4)cc3)co2)cc1 [mubritinib]
How it was run: as §1

Measured: log2 fold change

ARIH2 (UniProt O95376)
inactive: [1] -0.09 | [2] 0.014 | [3] -0.012 | [4] -0.053 | [5] -0.029 | [6] 0.022 | [7] -0.027 | [8] -0.006 | [9] 0.043 | [10] 0.037

ARMC10 (UniProt Q8N2F6)
inactive: [1] 0.046 | [2] 0.015 | [3] -0.063 | [4] -0.034 | [5] -0.125 | [6] -0.012 | [7] -0.052 | [8] -0.115 | [9] 0.001 | [10] -0.096

ARMC1 (UniProt Q9NVT9)
inactive: [1] -0.014 | [2] 0.037 | [3] -0.081 | [4] -0.004 | [5] -0.118 | [6] -0.032 | [7] 0.032 | [8] -0.062 | [9] -0.045 | [10] 0.054

ATG7 (UniProt O95352)
inactive: [1] -0.007 | [2] 0.031 | [3] -0.045 | [4] -0.043 | [5] -0.09 | [6] -0.04 | [7] 0.065 | [8] 0.002 | [9] -0.087 | [10] 0.04

ATP7A isoform 3 (UniProt Q04656)
inactive: [1] -0.01 | [2] -0.021 | [3] 0.006 | [4] -0.049 | [5] 0.023 | [6] 0.019 | [7] 0.033 | [8] -0.018 | [9] 0.007 | [10] -0.011

ASNA1 (UniProt O43681)
inactive: [1] 0.018 | [2] -0.019 | [3] 0.01 | [4] 0.017 | [5] 0.013 | [6] 0.007 | [7] -0.004 | [8] 0.024 | [9] 0 | [10] 0.042

ATP1A1 (UniProt P05023)
inactive: [1] 0.018 | [2] 0.102 | [3] 0.062 | [4] 0.008 | [5] 0.07 | [6] 0.005 | [7] 0.04 | [8] 0.001 | [9] -0.011 | [10] 0.023

ARPC3 (UniProt O15145)
inactive: [1] -0.056 | [2] -0.041 | [3] 0.079 | [4] -0.009 | [5] -0.01 | [6] 0.009 | [7] 0.014 | [8] -0.009 | [9] -0.055 | [10] 0.034

ATP7B (UniProt P35670)
inactive: [1] -0.009 | [2] -0.032 | [3] 0.006 | [4] -0.017 | [5] -0.153 | [6] 0.087 | [7] 0.015 | [8] 0.001 | [9] 0.019 | [10] -0.079

ARMT1 (UniProt Q9H993)
inactive: [1] -0.002 | [2] -0.045 | [3] -0.348 | [4] -0.061 | [5] -0.236 | [6] 0.026 | [7] 0.029 | [8] -0.006 | [9] -0.267 | [10] 0.191

ATP9B (UniProt O43861)
inactive: [1] -0.042 | [2] -0.042 | [3] -0.147 | [4] -0.149 | [5] -0.067 | [6] 0.038 | [7] 0.037 | [8] -0.096 | [9] 0.121 | [10] 0.069

ATP6V1A (UniProt P38606)
inactive: [1] -0.091 | [2] 0.015 | [3] -0.003 | [4] -0.013 | [5] 0.041 | [6] 0.025 | [7] -0.007 | [8] -0.033 | [9] 0.027 | [10] 0.08

ARL3 (UniProt P36405)
inactive: [1] -0.024 | [2] -0.029 | [3] 0.011 | [4] 0.006 | [5] 0.001 | [6] -0.003 | [7] 0.022 | [8] -0.018 | [9] -0.034 | [10] 0.029

ATP5ME (UniProt P56385)
inactive: [1] -0.071 | [2] -0.051 | [3] 0.022 | [4] 0.008 | [5] 0.084 | [6] -0.046 | [7] 0.001 | [8] 0.103 | [9] -0.031 | [10] 0.023

ATP6V0A1 (UniProt Q93050)
inactive: [1] -0.078

ATP12A isoform 2 (UniProt P54707)
inactive: [1] 0.026 | [2] 0.011 | [3] 0.02 | [4] -0.007 | [5] 0.022 | [6] 0.007 | [7] 0.066 | [8] 0.04 | [9] 0.016 | [10] 0.018

ATP2C1 isoform 7 (UniProt P98194)
inactive: [1] -0.095 | [2] -0.087 | [3] -0.02 | [4] -0.018 | [5] 0.022 | [6] 0.013 | [7] -0.013 | [8] 0.021 | [9] 0.036 | [10] 0.035

ATP6AP2 (UniProt O75787)
inactive: [1] 0.039 | [2] 0.014 | [3] 0 | [4] 0.045 | [5] -0.049 | [6] 0.001 | [7] -0.032 | [8] 0.062 | [9] 0.05 | [10] -0.016

ATP5F1D (UniProt P30049)
inactive: [1] 0.019 | [2] -0.065 | [3] -0.043 | [4] 0.035 | [5] 0.097 | [6] 0.007 | [7] 0.015 | [8] 0.058 | [9] 0.023 | [10] 0.041

ATP5PD (UniProt O75947)
inactive: [1] -0.044 | [2] 0.035 | [3] -0.011 | [4] 0.043 | [5] 0.023 | [6] -0.012 | [7] 0.025 | [8] 0.025 | [9] 0.033 | [10] -0.001

ATM (UniProt Q13315)
inactive: [1] -0.078 | [2] 0.035 | [3] 0.021 | [4] -0.074 | [5] -0.193 | [6] -0.033 | [7] 0.128 | [8] 0.003 | [9] -0.026 | [10] 0.002

ASCC1 isoform 2 (UniProt Q8N9N2)
inactive: [1] -0.018 | [2] 0.002 | [3] -0.052 | [4] -0.041 | [5] -0.077 | [6] -0.048 | [7] -0.041 | [8] -0.034 | [9] -0.053 | [10] 0.03

ARL6IP6 (UniProt Q8N6S5)
inactive: [1] -0.096 | [2] 0.024 | [3] -0.027 | [4] 0.019 | [5] 0.098 | [6] 0.036 | [7] 0.012 | [8] -0.186 | [9] -0.054 | [10] 0.04

ASCC3 (UniProt Q8N3C0)
inactive: [1] 0.142 | [2] 0.004 | [3] -0.079 | [4] 0.02 | [5] 0.094 | [6] 0.055 | [7] -0.082 | [8] -0.08 | [9] -0.012 | [10] 0.161

ATP5MPL (UniProt P56378)
inactive: [1] 0.011 | [2] -0.036 | [3] 0.022 | [4] 0.007 | [5] 0.182 | [6] -0.039 | [7] 0.108 | [8] 0.149 | [9] -0.031 | [10] 0.018

ATP6V1G1 (UniProt O75348)
inactive: [1] -0.113 | [2] -0.03 | [3] -0.001 | [4] -0.009 | [5] 0.063 | [6] 0.029 | [7] 0.015 | [8] -0.013 | [9] 0.025 | [10] 0.056

ATF2 (UniProt P15336)
inactive: [1] 0.024 | [2] 0.05 | [3] -0.181 | [4] 0.123 | [5] 0.218 | [6] 0.006 | [7] 0.02 | [8] 0.005 | [9] -0.06 | [10] 0.137

ARV1 (UniProt Q9H2C2)
inactive: [1] -0.128 | [2] 0.217 | [3] -0.058 | [4] 0.057 | [5] -0.053 | [6] 0.031 | [7] 0.03 | [8] -0.031 | [9] -0.031 | [10] 0.019

ATP2B1 isoform 1 (UniProt P20020)
inactive: [1] 0.034 | [2] -0.007 | [3] 0.04 | [4] -0.009 | [5] 0.02 | [6] 0.006 | [7] 0.048 | [8] 0.02 | [9] 0.05 | [10] 0.031

ASF1A (UniProt Q9Y294)
inactive: [1] -0.083 | [2] 0.048 | [3] -0.004 | [4] -0.054 | [5] 0 | [6] -0.058 | [7] -0.013 | [8] -0.016 | [9] -0.02 | [10] 0.078

Fetched one by one from the entries so far, two records:
ATP2B1 isoform 1 (UniProt P20020)
inactive: [1] 0.034 | [2] -0.007 | [3] 0.04 | [4] -0.009 | [5] 0.02 | [6] 0.006 | [7] 0.048 | [8] 0.02 | [9] 0.05 | [10] 0.031

ARL6IP6 (UniProt Q8N6S5)
inactive: [1] -0.096 | [2] 0.024 | [3] -0.027 | [4] 0.019 | [5] 0.098 | [6] 0.036 | [7] 0.012 | [8] -0.186 | [9] -0.054 | [10] 0.04
